In data set [1] the target is BARHL2 DBD T278I/T285V (HOXB13) (human) (UniProt Q9NY43). The experiment in a line: HT-SELEX. As to conditions: SELEX buffer: 10.4 mM Tris-HCl pH 7.5, 51.4 mM NaCl, 1.4 mM MgCl2, 4% glycerol, 100 uM EGTA, 0.7 mM DTT, 3.7 ug/ml poly-dI-dC, 1.4 uM ZnSO4; room temperature (22 C); high values mean tight binding; recombinant protein; protein details: His (pETG20A_SPB vector); only the motif is given; counted as no binding.

Chains of the proteins cited; added tags and fusions are not shown. Residues count along the entry.
UniProt Q9NY43, 227-293 T278I/T285V: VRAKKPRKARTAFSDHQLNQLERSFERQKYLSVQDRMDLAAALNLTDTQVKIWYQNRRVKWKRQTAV
UniProt Q9NY43, 227-293 T278N/T285R: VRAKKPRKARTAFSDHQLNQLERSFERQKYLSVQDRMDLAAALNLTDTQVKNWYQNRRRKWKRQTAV

For data set [2], the target named is BARHL2 DBD T278N/T285R (PKNOX1) (human) (UniProt Q9NY43). The experiment in a line: HT-SELEX. The conditions noted are these: SELEX buffer: 10.4 mM Tris-HCl pH 7.5, 51.4 mM NaCl, 1.4 mM MgCl2, 4% glycerol, 100 uM EGTA, 0.7 mM DTT, 3.7 ug/ml poly-dI-dC, 1.4 uM ZnSO4; room temperature (22 C); high values mean tight binding; recombinant protein; protein details: His (pETG20A_SPB vector); only the motif is given; counted as no binding.

These results are taken from publication PMC11996681.

Consider TAACCG (double strand), for which the binding signal (fold enrichment) in data set [1] amounted to 1.2. TAAGCG (double strand): the binding signal (fold enrichment) came out at 1.1 in data set [2] and 1.2 in data set [1]. Take TAATGG (double strand): in data set [2], the binding signal (fold enrichment) was determined as 1.2. Regarding TAAATG (double strand), in data set [2], the binding signal (fold enrichment) was found to be 0.8.
